In doi:10.1101/2020.09.23.309518:
Read-outs that look alike come from different tables or passages of the source. These are yes or no findings as the source states them, for the method shown. For some of these results: Binding seen in cells or lysates may run through a third protein. Some results given as binding are weak or reduced against the parent protein; the word gives no strength.

Protein sequences, listed by entry. Tags and fused reporters are not part of them. Lines headed by an entry give the natural chain unless they say otherwise; changes in a name come on top. Chains listed by the source or under a name are the forms on record and can include a tag or linker. Residues count along the entry.
UniProt Q16659: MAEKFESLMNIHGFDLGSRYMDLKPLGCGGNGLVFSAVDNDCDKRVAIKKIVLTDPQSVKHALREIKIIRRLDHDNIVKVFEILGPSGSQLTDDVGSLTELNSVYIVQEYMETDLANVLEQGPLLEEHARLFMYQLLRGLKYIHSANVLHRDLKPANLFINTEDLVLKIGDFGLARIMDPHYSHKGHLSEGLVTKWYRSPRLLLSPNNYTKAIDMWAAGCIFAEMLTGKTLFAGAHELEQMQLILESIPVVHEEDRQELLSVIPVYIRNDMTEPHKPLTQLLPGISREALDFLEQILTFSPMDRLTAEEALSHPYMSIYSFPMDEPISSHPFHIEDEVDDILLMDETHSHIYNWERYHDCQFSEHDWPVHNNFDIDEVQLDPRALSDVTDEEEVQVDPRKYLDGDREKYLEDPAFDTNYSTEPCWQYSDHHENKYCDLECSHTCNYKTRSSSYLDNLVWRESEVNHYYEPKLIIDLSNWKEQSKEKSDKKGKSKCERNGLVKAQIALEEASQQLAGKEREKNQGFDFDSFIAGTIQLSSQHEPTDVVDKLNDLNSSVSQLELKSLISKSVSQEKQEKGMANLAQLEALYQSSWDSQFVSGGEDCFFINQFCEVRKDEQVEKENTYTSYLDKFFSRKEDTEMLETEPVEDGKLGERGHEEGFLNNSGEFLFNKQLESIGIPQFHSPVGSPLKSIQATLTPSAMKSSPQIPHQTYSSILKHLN
MAPK6^1-480: residues 1-480 of Q16659
MAPK6^1-439: residues 1-439 of Q16659
MAPK6^1-408: residues 1-408 of Q16659
MAPK6^1-389: residues 1-389 of Q16659
MAPK6^1-384: residues 1-384 of Q16659
MAPK6^1-379: residues 1-379 of Q16659
MAPK6^1-373: residues 1-373 of Q16659
MAPK6^1-362: residues 1-362 of Q16659
kinase domain of MAPK6 (the 1-316 aa fragment): residues 1-316 of Q16659
MAPK6 fragment containing both C34 and C-terminal tail: residues 317-721 of Q16659
C34 region of MAPK6 (the 317-480 aa fragment): residues 317-480 of Q16659
C-terminal tail of MAPK6: residues 481-721 of Q16659
MAPK6^1-480 mutant with an internal 363-379 deletion (Q16659, form named): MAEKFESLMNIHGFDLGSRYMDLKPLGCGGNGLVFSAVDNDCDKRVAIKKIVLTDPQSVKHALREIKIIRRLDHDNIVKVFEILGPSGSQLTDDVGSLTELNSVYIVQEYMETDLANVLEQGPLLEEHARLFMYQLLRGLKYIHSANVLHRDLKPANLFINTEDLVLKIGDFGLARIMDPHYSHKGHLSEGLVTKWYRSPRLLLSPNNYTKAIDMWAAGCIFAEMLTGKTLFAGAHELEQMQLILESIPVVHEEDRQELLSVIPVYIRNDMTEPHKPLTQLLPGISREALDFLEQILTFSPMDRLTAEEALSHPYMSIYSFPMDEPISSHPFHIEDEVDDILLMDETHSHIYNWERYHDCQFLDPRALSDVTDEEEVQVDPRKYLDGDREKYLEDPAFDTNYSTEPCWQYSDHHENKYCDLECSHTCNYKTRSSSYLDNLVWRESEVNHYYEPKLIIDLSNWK
FLAG-tagged MAPK6 mutant with EEDRQE mutated to AAARAA (Q16659, form named): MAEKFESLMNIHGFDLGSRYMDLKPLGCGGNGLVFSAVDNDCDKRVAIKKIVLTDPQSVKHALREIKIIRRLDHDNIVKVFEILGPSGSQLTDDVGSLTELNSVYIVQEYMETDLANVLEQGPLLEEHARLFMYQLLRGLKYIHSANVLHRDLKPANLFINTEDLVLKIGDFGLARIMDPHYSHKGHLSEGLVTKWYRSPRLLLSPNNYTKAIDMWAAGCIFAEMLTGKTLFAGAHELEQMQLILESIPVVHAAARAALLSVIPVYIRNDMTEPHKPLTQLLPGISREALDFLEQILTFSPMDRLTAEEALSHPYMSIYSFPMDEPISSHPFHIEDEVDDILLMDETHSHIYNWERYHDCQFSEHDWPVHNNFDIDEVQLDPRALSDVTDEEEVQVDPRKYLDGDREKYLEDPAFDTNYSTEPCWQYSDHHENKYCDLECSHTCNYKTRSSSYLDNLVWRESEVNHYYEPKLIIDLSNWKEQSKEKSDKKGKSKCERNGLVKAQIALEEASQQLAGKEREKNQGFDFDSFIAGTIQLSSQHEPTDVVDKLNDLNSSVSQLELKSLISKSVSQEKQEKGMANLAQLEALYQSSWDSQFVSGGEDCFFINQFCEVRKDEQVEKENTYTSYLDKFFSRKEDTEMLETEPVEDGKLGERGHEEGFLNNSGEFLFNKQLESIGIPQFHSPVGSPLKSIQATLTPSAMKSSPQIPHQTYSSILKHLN
MAPK6^1-384 with DIDE (374-377) mutated to KIKK (Q16659, form named): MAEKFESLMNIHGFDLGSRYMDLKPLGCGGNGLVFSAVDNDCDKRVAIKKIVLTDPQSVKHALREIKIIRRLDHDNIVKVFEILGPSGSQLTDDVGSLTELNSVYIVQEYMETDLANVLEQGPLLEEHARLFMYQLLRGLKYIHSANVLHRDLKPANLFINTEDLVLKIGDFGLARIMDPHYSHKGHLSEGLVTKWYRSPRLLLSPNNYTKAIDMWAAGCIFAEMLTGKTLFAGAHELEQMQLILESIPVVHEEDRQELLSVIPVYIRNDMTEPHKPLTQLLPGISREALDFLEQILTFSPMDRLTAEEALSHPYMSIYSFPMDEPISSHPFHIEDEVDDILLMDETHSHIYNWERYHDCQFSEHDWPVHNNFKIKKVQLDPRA
full-length MAPK6 with DIDE (374-377) mutated to KIKK (Q16659, form named): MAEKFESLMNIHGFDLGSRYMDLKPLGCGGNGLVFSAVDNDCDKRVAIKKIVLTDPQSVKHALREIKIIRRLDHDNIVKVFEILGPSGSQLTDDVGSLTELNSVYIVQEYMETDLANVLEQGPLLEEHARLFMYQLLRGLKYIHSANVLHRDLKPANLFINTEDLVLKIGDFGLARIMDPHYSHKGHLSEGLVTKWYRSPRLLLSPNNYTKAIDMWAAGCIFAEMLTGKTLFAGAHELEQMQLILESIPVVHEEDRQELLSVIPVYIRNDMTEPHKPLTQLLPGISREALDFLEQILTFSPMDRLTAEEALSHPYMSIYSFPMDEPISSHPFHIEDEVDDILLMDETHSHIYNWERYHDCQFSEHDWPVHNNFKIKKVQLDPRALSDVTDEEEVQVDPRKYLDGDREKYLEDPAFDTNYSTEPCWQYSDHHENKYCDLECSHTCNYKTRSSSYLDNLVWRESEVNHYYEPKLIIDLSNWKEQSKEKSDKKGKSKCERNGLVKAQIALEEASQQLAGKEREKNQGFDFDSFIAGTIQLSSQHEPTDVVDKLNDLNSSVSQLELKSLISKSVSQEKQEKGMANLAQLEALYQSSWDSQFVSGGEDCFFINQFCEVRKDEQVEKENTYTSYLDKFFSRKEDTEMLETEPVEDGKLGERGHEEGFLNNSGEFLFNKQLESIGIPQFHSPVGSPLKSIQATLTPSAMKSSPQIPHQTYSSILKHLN
UniProt P31749: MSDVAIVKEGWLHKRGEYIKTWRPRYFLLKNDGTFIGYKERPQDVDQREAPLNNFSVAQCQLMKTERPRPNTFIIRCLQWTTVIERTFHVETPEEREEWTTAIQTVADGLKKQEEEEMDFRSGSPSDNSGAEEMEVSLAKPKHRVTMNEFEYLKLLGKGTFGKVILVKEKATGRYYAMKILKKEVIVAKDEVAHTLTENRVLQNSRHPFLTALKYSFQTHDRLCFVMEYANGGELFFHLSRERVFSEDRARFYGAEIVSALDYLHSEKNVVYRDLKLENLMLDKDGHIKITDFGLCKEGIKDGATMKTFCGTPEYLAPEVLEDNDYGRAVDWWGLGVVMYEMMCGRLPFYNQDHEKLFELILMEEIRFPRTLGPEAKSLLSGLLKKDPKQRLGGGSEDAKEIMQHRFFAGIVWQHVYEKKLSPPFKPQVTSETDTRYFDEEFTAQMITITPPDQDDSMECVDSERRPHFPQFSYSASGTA
UniProt Q8IW41: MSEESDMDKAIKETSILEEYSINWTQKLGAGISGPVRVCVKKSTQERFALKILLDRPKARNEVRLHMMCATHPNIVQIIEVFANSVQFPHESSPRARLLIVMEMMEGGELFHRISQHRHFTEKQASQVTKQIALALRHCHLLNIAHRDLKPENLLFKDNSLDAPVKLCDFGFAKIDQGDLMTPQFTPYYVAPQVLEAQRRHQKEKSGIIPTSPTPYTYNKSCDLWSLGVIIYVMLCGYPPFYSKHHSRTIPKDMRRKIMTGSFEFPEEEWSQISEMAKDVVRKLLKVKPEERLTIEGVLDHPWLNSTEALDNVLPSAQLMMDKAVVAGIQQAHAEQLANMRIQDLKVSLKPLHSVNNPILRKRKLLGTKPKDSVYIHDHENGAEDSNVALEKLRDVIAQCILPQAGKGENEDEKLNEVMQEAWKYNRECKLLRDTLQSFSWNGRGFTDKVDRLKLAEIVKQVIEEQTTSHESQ

Tests used:
[1] = biological target: GST-MAPK6 fusion protein (human) (UniProt Q16659); test: pull-down
[2] = biological target: MAPK6^1-480 (human) (UniProt Q16659); test: co-IP
[3] = biological target: MAPK6^1-480 mutant with an internal 363-379 deletion (human) (UniProt Q16659); test: co-IP
[4] = biological target: MAPK6^1-373 (human) (UniProt Q16659); test: co-IP
[5] = biological target: MAPK6^1-384 (human) (UniProt Q16659); test: co-IP
[6] = biological target: C-terminal tail of MAPK6 (human) (UniProt Q16659); test: co-IP
[7] = biological target: MAPK6^1-408 (human) (UniProt Q16659); test: co-IP
[8] = biological target: kinase domain of MAPK6 (the 1-316 aa fragment) (human) (UniProt Q16659); test: co-IP
[9] = biological target: MAPK6 fragment containing both C34 and C-terminal tail (human) (UniProt Q16659); test: co-IP
[10] = biological target: MAPK6^1-439 (human) (UniProt Q16659); test: co-IP
[11] = biological target: MAPK6^1-389 (human) (UniProt Q16659); test: co-IP
[12] = biological target: MAPK6^1-379 (human) (UniProt Q16659); test: co-IP
[13] = biological target: FLAG-tagged MAPK6 mutant with EEDRQE mutated to AAARAA (human) (UniProt Q16659); test: co-IP
[14] = biological target: MAPK6^1-384 with DIDE (374-377) mutated to KIKK (human) (UniProt Q16659); test: co-IP
[15] = biological target: FLAG-tagged S189A mutant MAPK6 (human) (UniProt Q16659); test: co-IP
[16] = biological target: FLAG-tagged MAPK6 (wild type, full length) (human) (UniProt Q16659); test: co-IP
[17] = biological target: MAPK6^1-362 (human) (UniProt Q16659); test: co-IP
[18] = biological target: full-length MAPK6 with DIDE (374-377) mutated to KIKK (human) (UniProt Q16659); test: co-IP
[19] = biological target: C34 region of MAPK6 (the 317-480 aa fragment) (human) (UniProt Q16659); test: co-IP
[20] = biological target: FLAG-tagged AKT1 (UniProt P31749); test: co-IP
[21] = biological target: FLAG-tagged AKT1 (UniProt P31749); test: co-IP; remark: listed apart in the source

commercially available purified AKT1 protein (from UniProt P31749 1-480)
binding [1]: binds

MAP kinase-activated protein kinase 5 (from UniProt Q8IW41 1-473)
binding [2]: binds | binding [3]: binds

His-tagged AKT1 (from UniProt P31749 1-480)
binding [4]: no binding | binding [5]: binds | binding [6]: binds | binding [7]: binds | binding [8]: no binding | binding [9]: binds | binding [2]: binds | binding [10]: binds | binding [11]: binds | binding [12]: binds | binding [13]: binds | binding [14]: no binding | binding [15]: binds | binding [16]: binds | binding [17]: no binding | binding [18]: binds | binding [19]: binds

HA-tagged MAPK6 (from UniProt Q16659 1-721)
binding [20]: binds | binding [21]: binds
